Reference: publication PMC6692471
These are yes or no findings as the source states them, for the method shown. Binding seen in cells or lysates may run through a third protein. Some results given as binding are weak or reduced against the parent protein; the word gives no strength. For some assays here: Tags and fused reporters may be left off the sequences shown.

The chains behind the UniProt entries cited, without tags or fusion partners.
UniProt P51809: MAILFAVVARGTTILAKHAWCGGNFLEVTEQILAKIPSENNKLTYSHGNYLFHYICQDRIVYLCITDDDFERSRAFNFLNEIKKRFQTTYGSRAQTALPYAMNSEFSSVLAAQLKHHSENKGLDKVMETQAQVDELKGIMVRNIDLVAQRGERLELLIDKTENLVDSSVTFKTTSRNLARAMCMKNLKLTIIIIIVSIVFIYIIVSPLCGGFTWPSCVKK
UniProt P63027: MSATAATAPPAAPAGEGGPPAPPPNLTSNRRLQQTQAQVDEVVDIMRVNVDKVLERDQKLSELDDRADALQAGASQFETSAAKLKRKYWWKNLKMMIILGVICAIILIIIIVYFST

T1: Twin-Strep-tag-Syntaxin11 (UniProt O75558)
T1 sequence: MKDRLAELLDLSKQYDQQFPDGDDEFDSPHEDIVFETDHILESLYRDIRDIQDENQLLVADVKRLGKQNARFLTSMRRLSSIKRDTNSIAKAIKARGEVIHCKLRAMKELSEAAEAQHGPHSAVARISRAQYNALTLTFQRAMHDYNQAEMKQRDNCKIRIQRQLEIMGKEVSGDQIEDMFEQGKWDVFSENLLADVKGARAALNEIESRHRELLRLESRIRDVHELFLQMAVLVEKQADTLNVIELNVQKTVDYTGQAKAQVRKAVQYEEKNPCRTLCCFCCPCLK


Experiments:
[1] = molecular target: T1, Twin-Strep-tag-Syntaxin11; assay: pull-down; Twin-Strep-tag pulldown: 500 ug cleared lysate of transfected primary human CD8+ T cells on Strep-Tactin-Sepharose, 1.5 h, 4 C; lysis and wash buffer 50 mM Tris pH 7.4, 300 mM NaCl, 0.5% Triton X-100; bound proteins detected by Western blot
[2] = molecular target: VAMP7-Flag-Twin-Strep-tag (UniProt P51809); assay: as above

binding [1]	binding [2]	Molecule
no binding		VAMP2 (from UniProt P63027 1-116)
	binds	Syntaxin11 (protein, UniProt O75558 1-287) MKDRLAELLDLSKQYDQQFPDGDDEFDSPHEDIVFETDHILESLYRDIRDIQDENQLLVADVKRLGKQNARFLTSMRRLSSIKRDTNSIAKAIKARGEVIHCKLRAMKELSEAAEAQHGPHSAVARISRAQYNALTLTFQRAMHDYNQAEMKQRDNCKIRIQRQLEIMGKEVSGDQIEDMFEQGKWDVFSENLLADVKGARAALNEIESRHRELLRLESRIRDVHELFLQMAVLVEKQADTLNVIELNVQKTVDYTGQAKAQVRKAVQYEEKNPCRTLCCFCCPCLK
